No constants are given. Whether binding was seen depends on the method and setting. Binding seen in cells or lysates may run through a third protein. Here binding means that the protein was enriched with, or labelled near, the bait; the list need not be complete. Tags and fused reporters may be left off the sequences shown.
Target: T1, GFP:RAD21.2 (PRO_(ASK1):GFP:RAD21.2) (Arabidopsis thaliana) (UniProt Q9FQ19)
T1 sequence: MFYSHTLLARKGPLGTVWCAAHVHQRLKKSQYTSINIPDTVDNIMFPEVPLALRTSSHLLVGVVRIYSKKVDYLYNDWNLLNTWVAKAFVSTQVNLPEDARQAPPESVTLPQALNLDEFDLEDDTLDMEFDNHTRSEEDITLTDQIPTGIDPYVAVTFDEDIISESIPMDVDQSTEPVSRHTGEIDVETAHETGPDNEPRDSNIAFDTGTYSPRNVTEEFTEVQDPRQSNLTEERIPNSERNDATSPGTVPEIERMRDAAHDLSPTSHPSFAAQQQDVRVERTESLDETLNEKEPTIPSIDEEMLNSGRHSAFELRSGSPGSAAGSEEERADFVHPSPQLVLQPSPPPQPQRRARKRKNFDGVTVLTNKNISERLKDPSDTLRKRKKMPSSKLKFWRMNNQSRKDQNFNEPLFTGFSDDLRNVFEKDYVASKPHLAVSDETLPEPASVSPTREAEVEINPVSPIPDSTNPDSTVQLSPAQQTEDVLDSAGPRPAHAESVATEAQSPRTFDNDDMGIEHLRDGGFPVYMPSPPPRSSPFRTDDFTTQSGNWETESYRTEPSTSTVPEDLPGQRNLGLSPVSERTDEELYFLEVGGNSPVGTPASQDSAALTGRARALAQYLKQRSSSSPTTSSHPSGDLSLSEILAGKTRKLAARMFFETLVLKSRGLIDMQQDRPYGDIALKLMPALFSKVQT
Assay: affinity purification with mass spectrometry

Sequences of proteins named here, by UniProt entry; tags and fusion partners are left off.
UniProt Q6Q1P4: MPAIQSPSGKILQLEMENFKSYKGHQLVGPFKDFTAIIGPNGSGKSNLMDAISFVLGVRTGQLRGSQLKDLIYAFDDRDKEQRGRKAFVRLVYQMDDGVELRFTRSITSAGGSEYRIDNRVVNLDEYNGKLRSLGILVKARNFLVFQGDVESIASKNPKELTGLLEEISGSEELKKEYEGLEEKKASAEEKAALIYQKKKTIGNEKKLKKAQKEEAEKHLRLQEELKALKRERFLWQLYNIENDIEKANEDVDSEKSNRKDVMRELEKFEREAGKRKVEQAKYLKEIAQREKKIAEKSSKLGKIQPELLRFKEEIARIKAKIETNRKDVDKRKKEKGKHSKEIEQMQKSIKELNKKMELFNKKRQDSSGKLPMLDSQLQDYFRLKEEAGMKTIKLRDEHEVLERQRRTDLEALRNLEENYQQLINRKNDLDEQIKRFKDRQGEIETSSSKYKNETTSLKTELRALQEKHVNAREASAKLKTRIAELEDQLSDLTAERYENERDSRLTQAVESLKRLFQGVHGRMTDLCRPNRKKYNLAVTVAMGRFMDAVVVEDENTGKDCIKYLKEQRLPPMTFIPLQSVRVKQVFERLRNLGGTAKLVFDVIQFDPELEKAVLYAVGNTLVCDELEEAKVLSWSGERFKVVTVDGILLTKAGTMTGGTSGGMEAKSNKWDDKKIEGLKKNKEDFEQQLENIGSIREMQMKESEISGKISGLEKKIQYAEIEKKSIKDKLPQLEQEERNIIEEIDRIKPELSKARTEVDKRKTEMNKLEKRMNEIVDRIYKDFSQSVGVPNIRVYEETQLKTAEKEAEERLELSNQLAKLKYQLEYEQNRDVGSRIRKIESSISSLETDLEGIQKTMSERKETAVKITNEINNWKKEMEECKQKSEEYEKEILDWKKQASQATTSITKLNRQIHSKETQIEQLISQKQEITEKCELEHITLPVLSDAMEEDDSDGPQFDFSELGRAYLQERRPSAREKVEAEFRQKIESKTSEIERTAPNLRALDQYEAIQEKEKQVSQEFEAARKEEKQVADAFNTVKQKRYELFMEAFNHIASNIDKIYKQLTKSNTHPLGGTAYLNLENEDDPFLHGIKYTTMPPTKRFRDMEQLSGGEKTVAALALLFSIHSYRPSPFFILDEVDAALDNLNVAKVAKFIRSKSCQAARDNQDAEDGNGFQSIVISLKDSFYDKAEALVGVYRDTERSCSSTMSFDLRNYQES

Molecule	binding
SMC1 (endogenous) (from UniProt Q6Q1P4 1-1218)	binds
SMC3 (endogenous) (protein, UniProt Q56YN8 1-1204) MFIKQVIIEGFKSYKEQVATEEFSNKVNCVVGANGSGKSNFFHAIRFVLSDIYQNLRSEDRHALLHEGAGHQVVSAFVEIVFDNSDNRFPVDKEEIRLRRTVGLKKDDYFLDGKHITKGEVMNLLESAGFSRANPYYVVQQGKIASLTLMKDIERLDLLKEIGGTRVYEERRRESLRIMQETGNKRKQIIEVVHYLDERLRELDEEKEELRKYQQLDKQRKSLEYTIYDKELHDAREKLEQVEVARTKASEESTKMYDRVEKAQDDSKSLDESLKELTKELQTLYKEKETVEAQQTKALKKKTKLELDVKDFQDRITGNIQSKNDALEQLNTVEREMQDSLRELEAIKPLYESQVDKENQTSKRINELEKTLSILYQKQGRATQFSNKAARDKWLRKEIEDLKRVLDSNTVQEQKLQDEILRLNTDLTERDEHIKKHEVEIGELESRISKSHELFNTKKRERDEEQRKRKEKWGEESQLSSEIDKLKTELERAKKNLDHATPGDVRRGLNSIRRICADYRINGVFGPLVELVDCDEKFFTAVEVTAGNSLFNVVVENDDISTKIIRHLNSLKGGRVTFLPLNRIKAPRVNYPKDSDAIPLLKKLKFDSKFEPALGQVFGRTVVCRDLNVATRVAKNDDLDCITMEGDQVSRKGGMTGGFYDHRRSKLRFMNIIMQNTKSINEKEKELEDVRRQLQVIDQQITQLVTEQQRLEADWTLCKLQVEQLKQEIANANKQKHAIHKAIEYKEKLLGDIRTRIDQVRSSMSMKEAEMGTELVDHLTPEEREQLSKLNPEIKDLKEKKFAYQADRIERETRKAELEANIATNLKRRITELQATIASIDDDSLPSSAGTKEQELDDAKLSVNEAAKELKSVCDSIDEKTKQIKKIKDEKAKLKTLEDDCKGTLQDLDKKLEELFSLRNTLLAKQDEYTKKIRGLGPLSSDAFDTYKRKNIKELQKMLHRCSEQLQQFSHVNKKALDQYVNFTEQREELQNRQAELDAGDEKIKELITVLDQRKDESIERTFKGVAHHFRDVFSELVQDGYGNLIIMKKKDLDNDDEDDDDDDGGREAVTEGRVEKYIGVKVKVSFTGQGETQLMKQLSGGQKTVVALALIFAIQRCDPAPFYLFDEIDAALDPQYRTAVGNLIRRLADDYGTQFITTTFRPELVRVADKIYGVFHKNRVSIVNVISKDQALDFIEKDQSHDT	binds

— publication doi:10.1101/2022.06.20.496767
